Data taken from patent US20220401589A1, “PRE-TARGETING IMAGING AGENTS” (Eli Lilly and Company, priority 2019, published 2022).
This continues a long series; more values of the same kind are listed elsewhere.

Assay: Dynamic PET-CT imaging, tracer uptake in brain, muscle and bone
Format: in vivo, Male CD-1 mice
Conditions: 90-minute PET scan
Protocol: PET-CT imaging of [^18F]—N-(4-(1,2,4,5-tetrazin-3-yl)benzyl)-4-fluorobenzamide
A Siemens Inveon® Multimodality Scanner (Siemens, Germany) is used for micro PET/CT imaging. Male CD-1 (6-week-old, ˜30 g) mice are anesthetized with 3% isoflurane/97% oxygen and placed on the bed of the scanner. The mice are administered [^18F]—N-(4-(1,2,4,5-tetrazin-3-yl)benzyl)-4-fluorobenzamide via a bolus intravenous tail vein injection (˜[…] in a total volume of 200 μL saline). A total of six (four 60 min and two 90 min) dynamic PET scans are conducted, followed by a short high-resolution CT scan for anatomical registration. PET images are generated for each minute of the acquisition time. Uptake of the tracer in the brain, muscle, and bone are determined by visually drawing regions of interest (ROIs) based on the fused PET/CT images and the corresponding activity values are determined using the Inveon® Research Workplace software. All values are represented as % injected dose per gram (% ID/g).
Bone uptake throughout the scan period remained low, consistent with an absence of defluorination for this tracer. Results of the 90 min scans are similar to the 60 min scan results with peak brain uptake observed at 3.4% ID/g at 2.5 min post injection followed by an immediate wash out to 0.6% ID/g by 59.5 min. Residual uptake is also observed throughout the body of the mouse. Time activity curves are generated for [^18F]—N-(4-(1,2,4,5-tetrazin-3-yl)benzyl)-4-fluorobenzamide in CD-1 male mice (n=4). Data is shown in graphical format in FIGS. 1A and 1B and in tabular format below.

O=C(NCc1ccc(-c2nncnn2)cc1)c1ccc([18F])cc1 [[^18F]—N-(4-(1,2,4,5-tetrazin-3-yl)benzyl)-4-fluorobenzamide]
Bone Mean (time 0 min): 0 % ID/g | Brain Mean (time 0 min): 0 % ID/g | Muscle Mean (time 0 min): 0 % ID/g | Bone Mean (time 0.5 min): 0 % ID/g | Brain Mean (time 0.5 min): 0 % ID/g | Muscle Mean (time 0.5 min): 0 % ID/g | Bone Mean (time 1.5 min): 0.48 % ID/g | Brain Mean (time 1.5 min): 2.02 % ID/g | Muscle Mean (time 1.5 min): 0.29 % ID/g | Bone Mean (time 2.5 min): 0.90 % ID/g | Brain Mean (time 2.5 min): 3.41 % ID/g | Muscle Mean (time 2.5 min): 0.63 % ID/g | Bone Mean (time 3.5 min): 0.90 % ID/g | Brain Mean (time 3.5 min): 3.06 % ID/g | Muscle Mean (time 3.5 min): 0.66 % ID/g | Bone Mean (time 4.5 min): 0.90 % ID/g | Brain Mean (time 4.5 min): 2.76 % ID/g | Muscle Mean (time 4.5 min): 0.63 % ID/g | Bone Mean (time 5.5 min): 0.87 % ID/g | Brain Mean (time 5.5 min): 2.50 % ID/g | Muscle Mean (time 5.5 min): 0.60 % ID/g | Bone Mean (time 6.5 min): 0.97 % ID/g | Brain Mean (time 6.5 min): 2.38 % ID/g | Muscle Mean (time 6.5 min): 0.68 % ID/g | Bone Mean (time 7.5 min): 0.94 % ID/g | Brain Mean (time 7.5 min): 2.19 % ID/g | Muscle Mean (time 7.5 min): 0.62 % ID/g | Bone Mean (time 8.5 min): 0.93 % ID/g | Brain Mean (time 8.5 min): 2.02 % ID/g | Muscle Mean (time 8.5 min): 0.68 % ID/g | Bone Mean (time 9.5 min): 1.01 % ID/g | Brain Mean (time 9.5 min): 1.87 % ID/g | Muscle Mean (time 9.5 min): 0.71 % ID/g | Bone Mean (time 10.5 min): 0.70 % ID/g | Brain Mean (time 10.5 min): 1.74 % ID/g | Muscle Mean (time 10.5 min): 0.65 % ID/g | Bone Mean (time 11.5 min): 0.82 % ID/g | Brain Mean (time 11.5 min): 1.63 % ID/g | Muscle Mean (time 11.5 min): 0.66 % ID/g | Bone Mean (time 12.5 min): 0.84 % ID/g | Brain Mean (time 12.5 min): 1.55 % ID/g | Muscle Mean (time 12.5 min): 0.67 % ID/g | Bone Mean (time 13.5 min): 0.83 % ID/g | Brain Mean (time 13.5 min): 1.44 % ID/g | Muscle Mean (time 13.5 min): 0.65 % ID/g | Bone Mean (time 14.5 min): 0.63 % ID/g | Brain Mean (time 14.5 min): 1.36 % ID/g | Muscle Mean (time 14.5 min): 0.64 % ID/g | Bone Mean (time 15.5 min): 0.62 % ID/g | Brain Mean (time 15.5 min): 1.29 % ID/g | Muscle Mean (time 15.5 min): 0.64 % ID/g | Bone Mean (time 16.5 min): 0.71 % ID/g | Brain Mean (time 16.5 min): 1.23 % ID/g | Muscle Mean (time 16.5 min): 0.60 % ID/g | Bone Mean (time 17.5 min): 0.51 % ID/g | Brain Mean (time 17.5 min): 1.16 % ID/g | Muscle Mean (time 17.5 min): 0.62 % ID/g | Bone Mean (time 18.5 min): 0.71 % ID/g | Brain Mean (time 18.5 min): 1.11 % ID/g | Muscle Mean (time 18.5 min): 0.63 % ID/g | Bone Mean (time 19.5 min): 0.74 % ID/g | Brain Mean (time 19.5 min): 1.04 % ID/g | Muscle Mean (time 19.5 min): 0.63 % ID/g | Bone Mean (time 20.5 min): 0.63 % ID/g | Brain Mean (time 20.5 min): 1.02 % ID/g | Muscle Mean (time 20.5 min): 0.66 % ID/g | Bone Mean (time 21.5 min): 0.70 % ID/g | Brain Mean (time 21.5 min): 0.97 % ID/g | Muscle Mean (time 21.5 min): 0.61 % ID/g | Bone Mean (time 22.5 min): 0.69 % ID/g | Brain Mean (time 22.5 min): 0.95 % ID/g | Muscle Mean (time 22.5 min): 0.61 % ID/g | Bone Mean (time 23.5 min): 0.78 % ID/g | Brain Mean (time 23.5 min): 0.91 % ID/g | Muscle Mean (time 23.5 min): 0.65 % ID/g | Bone Mean (time 24.5 min): 0.73 % ID/g | Brain Mean (time 24.5 min): 0.88 % ID/g | Muscle Mean (time 24.5 min): 0.64 % ID/g | Bone Mean (time 25.5 min): 0.95 % ID/g | Brain Mean (time 25.5 min): 0.85 % ID/g | Muscle Mean (time 25.5 min): 0.62 % ID/g | Bone Mean (time 26.5 min): 0.64 % ID/g | Brain Mean (time 26.5 min): 0.83 % ID/g | Muscle Mean (time 26.5 min): 0.58 % ID/g | Bone Mean (time 27.5 min): 0.69 % ID/g | Brain Mean (time 27.5 min): 0.82 % ID/g | Muscle Mean (time 27.5 min): 0.60 % ID/g | Bone Mean (time 28.5 min): 0.60 % ID/g | Brain Mean (time 28.5 min): 0.81 % ID/g | Muscle Mean (time 28.5 min): 0.62 % ID/g | Bone Mean (time 29.5 min): 0.76 % ID/g | Brain Mean (time 29.5 min): 0.78 % ID/g | Muscle Mean (time 29.5 min): 0.63 % ID/g | Bone Mean (time 30.5 min): 0.76 % ID/g | Brain Mean (time 30.5 min): 0.76 % ID/g | Muscle Mean (time 30.5 min): 0.64 % ID/g | Bone Mean (time 31.5 min): 0.60 % ID/g | Brain Mean (time 31.5 min): 0.75 % ID/g | Muscle Mean (time 31.5 min): 0.66 % ID/g | Bone Mean (time 32.5 min): 0.70 % ID/g | Brain Mean (time 32.5 min): 0.74 % ID/g | Muscle Mean (time 32.5 min): 0.63 % ID/g | Bone Mean (time 33.5 min): 0.67 % ID/g | Brain Mean (time 33.5 min): 0.72 % ID/g | Muscle Mean (time 33.5 min): 0.62 % ID/g | Bone Mean (time 34.5 min): 0.74 % ID/g | Brain Mean (time 34.5 min): 0.70 % ID/g | Muscle Mean (time 34.5 min): 0.60 % ID/g | Bone Mean (time 35.5 min): 0.69 % ID/g | Brain Mean (time 35.5 min): 0.70 % ID/g | Muscle Mean (time 35.5 min): 0.65 % ID/g | Bone Mean (time 36.5 min): 0.79 % ID/g | Brain Mean (time 36.5 min): 0.70 % ID/g | Muscle Mean (time 36.5 min): 0.65 % ID/g | Bone Mean (time 37.5 min): 0.62 % ID/g | Brain Mean (time 37.5 min): 0.68 % ID/g | Muscle Mean (time 37.5 min): 0.59 % ID/g | Bone Mean (time 38.5 min): 0.87 % ID/g | Brain Mean (time 38.5 min): 0.68 % ID/g | Muscle Mean (time 38.5 min): 0.63 % ID/g | Bone Mean (time 39.5 min): 0.60 % ID/g | Brain Mean (time 39.5 min): 0.66 % ID/g | Muscle Mean (time 39.5 min): 0.61 % ID/g | Bone Mean (time 40.5 min): 0.82 % ID/g | Brain Mean (time 40.5 min): 0.66 % ID/g | Muscle Mean (time 40.5 min): 0.61 % ID/g | Bone Mean (time 41.5 min): 0.77 % ID/g | Brain Mean (time 41.5 min): 0.66 % ID/g | Muscle Mean (time 41.5 min): 0.59 % ID/g | Bone Mean (time 42.5 min): 0.61 % ID/g | Brain Mean (time 42.5 min): 0.65 % ID/g | Muscle Mean (time 42.5 min): 0.63 % ID/g | Bone Mean (time 43.5 min): 0.65 % ID/g | Brain Mean (time 43.5 min): 0.64 % ID/g | Muscle Mean (time 43.5 min): 0.64 % ID/g | Bone Mean (time 44.5 min): 0.61 % ID/g | Brain Mean (time 44.5 min): 0.64 % ID/g | Muscle Mean (time 44.5 min): 0.66 % ID/g | Bone Mean (time 45.5 min): 0.66 % ID/g | Brain Mean (time 45.5 min): 0.64 % ID/g | Muscle Mean (time 45.5 min): 0.63 % ID/g | Bone Mean (time 46.5 min): 0.67 % ID/g | Brain Mean (time 46.5 min): 0.64 % ID/g | Muscle Mean (time 46.5 min): 0.64 % ID/g | Bone Mean (time 47.5 min): 0.69 % ID/g | Brain Mean (time 47.5 min): 0.64 % ID/g | Muscle Mean (time 47.5 min): 0.65 % ID/g | Bone Mean (time 48.5 min): 0.76 % ID/g | Brain Mean (time 48.5 min): 0.62 % ID/g | Muscle Mean (time 48.5 min): 0.61 % ID/g | Bone Mean (time 49.5 min): 0.91 % ID/g | Brain Mean (time 49.5 min): 0.62 % ID/g | Muscle Mean (time 49.5 min): 0.62 % ID/g | Bone Mean (time 50.5 min): 0.58 % ID/g | Brain Mean (time 50.5 min): 0.61 % ID/g | Muscle Mean (time 50.5 min): 0.60 % ID/g | Bone Mean (time 51.5 min): 0.70 % ID/g | Brain Mean (time 51.5 min): 0.63 % ID/g | Muscle Mean (time 51.5 min): 0.59 % ID/g | Bone Mean (time 52.5 min): 0.51 % ID/g | Brain Mean (time 52.5 min): 0.63 % ID/g | Muscle Mean (time 52.5 min): 0.65 % ID/g | Bone Mean (time 53.5 min): 0.68 % ID/g | Brain Mean (time 53.5 min): 0.62 % ID/g | Muscle Mean (time 53.5 min): 0.64 % ID/g | Bone Mean (time 54.5 min): 0.55 % ID/g | Brain Mean (time 54.5 min): 0.63 % ID/g | Muscle Mean (time 54.5 min): 0.69 % ID/g | Bone Mean (time 55.5 min): 0.68 % ID/g | Brain Mean (time 55.5 min): 0.61 % ID/g | Muscle Mean (time 55.5 min): 0.63 % ID/g | Bone Mean (time 56.5 min): 0.65 % ID/g | Brain Mean (time 56.5 min): 0.62 % ID/g | Muscle Mean (time 56.5 min): 0.67 % ID/g | Bone Mean (time 57.5 min): 0.62 % ID/g | Brain Mean (time 57.5 min): 0.63 % ID/g | Muscle Mean (time 57.5 min): 0.63 % ID/g | Bone Mean (time 58.5 min): 0.67 % ID/g | Brain Mean (time 58.5 min): 0.63 % ID/g
